Results on five molecules are retold here after publication PMC5792031.

By UniProt entry, the sequences of proteins in these tests, tags left out.
UniProt O00629: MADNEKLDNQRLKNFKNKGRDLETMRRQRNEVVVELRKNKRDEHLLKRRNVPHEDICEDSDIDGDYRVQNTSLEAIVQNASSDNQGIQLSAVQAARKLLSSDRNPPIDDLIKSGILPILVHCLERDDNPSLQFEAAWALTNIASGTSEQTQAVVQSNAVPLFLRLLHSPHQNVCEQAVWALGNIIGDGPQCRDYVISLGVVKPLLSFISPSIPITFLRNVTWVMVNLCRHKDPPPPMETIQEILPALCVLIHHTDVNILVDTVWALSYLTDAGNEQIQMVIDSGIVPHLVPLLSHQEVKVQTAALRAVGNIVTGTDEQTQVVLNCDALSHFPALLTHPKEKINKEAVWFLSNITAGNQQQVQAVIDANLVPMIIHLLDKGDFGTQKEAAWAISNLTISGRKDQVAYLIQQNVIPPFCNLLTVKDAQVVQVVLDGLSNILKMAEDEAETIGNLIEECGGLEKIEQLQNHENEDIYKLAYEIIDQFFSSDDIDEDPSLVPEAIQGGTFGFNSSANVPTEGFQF
UniProt P52294: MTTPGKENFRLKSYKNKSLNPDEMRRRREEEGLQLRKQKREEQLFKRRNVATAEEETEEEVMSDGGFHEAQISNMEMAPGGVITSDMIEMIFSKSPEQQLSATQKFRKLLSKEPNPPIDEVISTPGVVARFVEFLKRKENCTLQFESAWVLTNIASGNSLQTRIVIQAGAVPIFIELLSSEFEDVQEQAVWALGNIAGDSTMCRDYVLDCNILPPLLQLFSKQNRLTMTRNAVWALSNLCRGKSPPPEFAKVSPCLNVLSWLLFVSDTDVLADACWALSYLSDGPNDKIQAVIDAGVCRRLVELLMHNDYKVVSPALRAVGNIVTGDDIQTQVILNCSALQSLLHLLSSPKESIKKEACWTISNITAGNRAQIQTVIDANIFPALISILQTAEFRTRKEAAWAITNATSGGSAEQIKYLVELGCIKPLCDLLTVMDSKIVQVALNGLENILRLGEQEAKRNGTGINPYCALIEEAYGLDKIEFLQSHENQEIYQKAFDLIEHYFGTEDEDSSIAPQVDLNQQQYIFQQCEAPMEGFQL
UniProt P15682: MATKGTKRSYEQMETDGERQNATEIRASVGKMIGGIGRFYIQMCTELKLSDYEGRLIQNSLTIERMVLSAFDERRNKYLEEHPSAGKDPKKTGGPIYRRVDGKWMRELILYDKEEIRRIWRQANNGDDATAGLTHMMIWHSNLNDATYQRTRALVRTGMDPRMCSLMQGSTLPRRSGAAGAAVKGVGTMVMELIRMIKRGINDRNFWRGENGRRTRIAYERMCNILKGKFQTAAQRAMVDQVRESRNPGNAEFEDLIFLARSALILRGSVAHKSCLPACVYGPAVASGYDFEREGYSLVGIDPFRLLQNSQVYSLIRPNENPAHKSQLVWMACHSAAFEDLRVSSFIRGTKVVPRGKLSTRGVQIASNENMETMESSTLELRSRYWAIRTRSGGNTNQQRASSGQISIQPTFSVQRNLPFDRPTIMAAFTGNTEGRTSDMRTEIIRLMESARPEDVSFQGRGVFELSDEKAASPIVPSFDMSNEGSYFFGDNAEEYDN

These are yes or no findings as the source states them, for the method shown. In cells and extracts the contact can be indirect. Some results given as binding are weak or reduced against the parent protein; the word gives no strength. For some assays here: Where a sequence is shown, tags or fusion partners need not be part of it.

Test [1] has as its target T1, PLSCR1, endogenous in A549 cells (human (endogenous in A549)) (UniProt O15162).
T1 sequence: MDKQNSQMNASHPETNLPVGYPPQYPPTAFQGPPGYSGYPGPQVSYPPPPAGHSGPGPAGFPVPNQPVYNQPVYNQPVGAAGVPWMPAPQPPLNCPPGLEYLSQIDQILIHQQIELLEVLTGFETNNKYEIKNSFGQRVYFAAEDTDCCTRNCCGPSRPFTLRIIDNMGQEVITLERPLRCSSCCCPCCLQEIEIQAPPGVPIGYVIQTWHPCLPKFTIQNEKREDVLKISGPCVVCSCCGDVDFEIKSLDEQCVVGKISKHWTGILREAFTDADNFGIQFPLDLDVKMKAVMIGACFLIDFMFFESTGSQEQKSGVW
The test is described as follows: co-IP.

The target of test [2] is T2, Flag-tagged PLSCR1 (human) (UniProt O15162).
T2 sequence: T1 sequence
As to the kind of experiment: co-IP.

Test [3] addresses Myc-tagged importin α7 (human) (UniProt O60684). As to the kind of experiment: co-IP.
In test [4] the target is Myc-tagged importin α3 (human) (UniProt O00629). As to the kind of experiment: co-IP.
Test [5] has as its target Myc-tagged importin α5 (human) (UniProt P52294). As to the kind of experiment: co-IP.
For another test, the target named is T3, GST-PLSCR1 (human) (UniProt O15162).
T3 sequence: T1 sequence
The test is described as follows: pull-down; only the target purified.

In test [6] the target is V5-tagged WSN NP (influenza A virus A/WSN/33 (WSN, H1N1)) (UniProt P15682). As to the kind of experiment: co-IP.

Regarding “WSN NP in virus-infected A549 cells (from UniProt P15682 1-498)”, in test [1], the binding result is on record as “binds”. Turning to “V5-tagged WSN NP (from UniProt P15682 1-498)”, the binding result in test [2], in test [3], in test [4] and in test [5] was “binds” throughout. Take “WSN NP (untagged, pCAGGS-WSNNP) (from UniProt P15682 1-498)”: the binding entry with GST-PLSCR1 (human) is given as “binds”.

B1: Flag-tagged PLSCR1 (protein, UniProt O15162-1 1-318)
chain: T1 sequence
As to B1, in test [6], the binding entry was “binds”.

B2: Flag-MOV10 (protein, UniProt Q9HCE1 1-1003)
chain: MPSKFSCRQLREAGQCFESFLVVRGLDMETDRERLRTIYNRDFKISFGTPAPGFSSMLYGMKIANLAYVTKTRVRFFRLDRWADVRFPEKRRMKLGSDISKHHKSLLAKIFYDRAEYLHGKHGVDVEVQGPHEARDGQLLIRLDLNRKEVLTLRLRNGGTQSVTLTHLFPLCRTPQFAFYNEDQELPCPLGPGECYELHVHCKTSFVGYFPATVLWELLGPGESGSEGAGTFYIARFLAAVAHSPLAAQLKPMTPFKRTRITGNPVVTNRIEEGERPDRAKGYDLELSMALGTYYPPPRLRQLLPMLLQGTSIFTAPKEIAEIKAQLETALKWRNYEVKLRLLLHLEELQMEHDIRHYDLESVPMTWDPVDQNPRLLTLEVPGVTESRPSVLRGDHLFALLSSETHQEDPITYKGFVHKVELDRVKLSFSMSLLSRFVDGLTFKVNFTFNRQPLRVQHRALELTGRWLLWPMLFPVAPRDVPLLPSDVKLKLYDRSLESNPEQLQAMRHIVTGTTRPAPYIIFGPPGTGKTVTLVEAIKQVVKHLPKAHILACAPSNSGADLLCQRLRVHLPSSIYRLLAPSRDIRMVPEDIKPCCNWDAKKGEYVFPAKKKLQEYRVLITTLITAGRLVSAQFPIDHFTHIFIDEAGHCMEPESLVAIAGLMEVKETGDPGGQLVLAGDPRQLGPVLRSPLTQKHGLGYSLLERLLTYNSLYKKGPDGYDPQFITKLLRNYRSHPTILDIPNQLYYEGELQACADVVDRERFCRWAGLPRQGFPIIFHGVMGKDEREGNSPSFFNPEEAATVTSYLKLLLAPSSKKGKARLSPRSVGVISPYRKQVEKIRYCITKLDRELRGLDDIKDLKVGSVEEFQGQERSVILISTVRSSQSFVQLDLDFNLGFLKNPKRFNVAVTRAKALLIIVGNPLLLGHDPDWKVFLEFCKENGGYTGCPFPAKLDLQQGQNLLQGLSKLSPSTSGPHSHDYLPQEREGEGGLSLQVEPEWRNEL
Turning to B2, the binding result in test [6] is on record as “binds”.
